Source: PubChem BioAssay AID743454 (Peter MacCallum Cancer Centre, 2014)
Shown is an unselected part of about 18,000 reagents. 450 of them (2.5%) were called active. 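Single biological run; no consistent viability z cut-off exists, so the class columns, not z-scores, define the calls.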 A number with no mark means an inactive call. No sequences are given here.

- Purpose: 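Search for knock-downs that restore vorinostat killing in resistant colon cancer cells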 (primary screen)
- Cells: human HCT116-VR colon cancer cells, selected for vorinostat resistance
- Knock-down reagent: siRNA pool against human genes, 40 nM siRNA pool
- Timing: vorinostat for 24 h, read-out about 72 h after transfection
- Treatment: vorinostat at 2.5 µM final
- Read-out: 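Two measures, CellTiter-Fluor viability and luminescent caspase 3/7 activity, each as fold change against same-plate mock wells, mean of duplicates, then screen-wide robust z-score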
- Reading the numbers: viability robust z-score: higher = more viable cells than screen typical; caspase robust z-score: higher = more caspase 3/7 activity than screen typical
- Rule for the call: 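a knock-down is a hit when classed RV1 or RV2 for lowered viability, or CA1 or CA2 for caspase activation; those lethal without drug were dropped; hits were retested singly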

gene knocked down | viability hit class | caspase hit class | viability robust z-score | caspase robust z-score
EPHX4 | no change | no change | -0.04 | -0.3
KIF22 | no change | no change | -0.31 | 0.57
DMRT3 | no change | no change | 0.1 | 2.29
FAM24A | no change | no change | 1.82 | -0.22
DNAL1 | no change | no change | 0.84 | 1.17
ABCC12 | no change | no change | -0.02 | -0.21
LINC02872 | no change | no change | 0.24 | -0.32
MTFR1L | no change | no change | -2.09 | 0.62
PLXNB3 | no change | no change | -0.26 | -0.22
CLDN15 | no change | no change | 0.11 | 0.87
MTCL2 | no change | no change | -0.34 | 4.52
OR1N2 | no change | no change | -0.32 | -0.15
CMAS | no change | no change | -1.04 | -0.17
PCSK9 | no change | no change | -0.7 | 0.52
RAB22A | no change | no change | 0.42 | -0.9
ZNF474 | no change | no change | 1.47 | -0.17
CDH2 | no change | no change | -0.06 | -0.1
TCF19 | no change | no change | 1.93 | 0.41
PAN3 | no change | no change | 0.06 | -0.29
CD69 | no change | no change | 0.73 | -0.3
NCLN | no change | no change | -3.86 | 1.15
SC5D | no change (active) | CA1 (caspase activation) | -0.82 | 6.61
MED16 | no change | no change | -0.88 | -0.11

Part of the list above, limited to “caspase hit class”.
CLDN15: no change
MTCL2: no change
OR1N2: no change
